Experimental data: patent EP0080822A1, “Anti-hypertensive prolinol-based peptides” (BEECHAM GROUP PLC, priority 1981, dated 1983)
Some of these results come from one statement about several compounds together.

Molecular target: T1, angiotensin converting enzyme (Rattus norvegicus, UniProt P47820)
T1 construct: were each tested in anaesthetised rats; from tissue; host or cells: whole animal (anaesthetised rat)
T1 sequence (P47820 36-1313): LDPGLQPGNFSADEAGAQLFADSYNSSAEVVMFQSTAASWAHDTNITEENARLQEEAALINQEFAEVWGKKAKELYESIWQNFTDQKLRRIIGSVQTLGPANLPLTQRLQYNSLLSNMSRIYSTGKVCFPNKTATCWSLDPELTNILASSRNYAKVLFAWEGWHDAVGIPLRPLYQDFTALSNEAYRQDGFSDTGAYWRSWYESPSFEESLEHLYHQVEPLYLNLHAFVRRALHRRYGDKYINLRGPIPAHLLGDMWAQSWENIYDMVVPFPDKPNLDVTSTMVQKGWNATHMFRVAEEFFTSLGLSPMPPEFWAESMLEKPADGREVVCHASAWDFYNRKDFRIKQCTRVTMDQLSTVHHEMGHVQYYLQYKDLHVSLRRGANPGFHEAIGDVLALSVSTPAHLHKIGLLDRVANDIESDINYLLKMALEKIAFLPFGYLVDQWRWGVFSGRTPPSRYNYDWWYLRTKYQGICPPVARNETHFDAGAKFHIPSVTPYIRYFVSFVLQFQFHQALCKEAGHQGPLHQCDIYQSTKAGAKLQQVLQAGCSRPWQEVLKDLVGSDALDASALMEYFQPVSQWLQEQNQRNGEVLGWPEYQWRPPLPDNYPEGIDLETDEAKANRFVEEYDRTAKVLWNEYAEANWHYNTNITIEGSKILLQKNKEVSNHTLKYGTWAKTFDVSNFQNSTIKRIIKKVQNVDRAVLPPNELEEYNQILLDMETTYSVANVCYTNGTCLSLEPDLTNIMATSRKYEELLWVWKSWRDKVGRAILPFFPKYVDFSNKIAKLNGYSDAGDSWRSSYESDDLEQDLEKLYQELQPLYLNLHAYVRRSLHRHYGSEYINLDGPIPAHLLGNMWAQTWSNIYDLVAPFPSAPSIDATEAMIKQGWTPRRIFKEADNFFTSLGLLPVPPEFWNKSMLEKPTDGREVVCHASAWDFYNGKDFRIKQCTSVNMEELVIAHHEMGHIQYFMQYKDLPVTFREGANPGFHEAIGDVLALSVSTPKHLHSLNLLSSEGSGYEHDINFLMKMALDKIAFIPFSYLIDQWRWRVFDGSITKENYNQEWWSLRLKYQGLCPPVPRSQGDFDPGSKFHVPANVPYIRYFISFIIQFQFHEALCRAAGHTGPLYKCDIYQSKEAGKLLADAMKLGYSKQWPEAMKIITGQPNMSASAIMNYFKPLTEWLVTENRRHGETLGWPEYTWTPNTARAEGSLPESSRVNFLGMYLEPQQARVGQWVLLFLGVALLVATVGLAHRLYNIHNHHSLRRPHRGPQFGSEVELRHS
Experiment: In vivo test for inhibition of angiotensin converting enzyme: pressor responses to angiotensin I and II in anaesthetised rats
Details: angiotensin II 100 ng/kg (i.v)
Method: 2. In vivo test for inhibition of angiotensin converting enzyme.
The compounds of examples 1,2,4 & 5 were each tested in anaesthetised rats for their ability to reduce the pressor responses to angiotensin I, but not those to angiotensin II. The dose of angiotensin I was 300 n.g/kg (i.v) and the dose of angiotensin II was 100 ng/kg (i.v).
The results given are the mean of those obtained from the given number of rats.
'I' is the increase in diastolic blood pressure (mm Hg) to angiotensin I (control reponse).
'%R' is the percentage reduction in control angiotensin I response after the intervals (min) from dosage.

## N-(1-Carboxypropyl)-(S)-alanyl-4α-benzyloxy-(S)-proline [Example 1]
  pressor responses to angiotensin II: slightly augmented

## N-[2-(2,3-dihydro-2-benzofuranyl)-l-(ethoxycarbonyl) -ethyl)-(S)-alanyl -4α-benzyloxy-(S)-nroline [Example 4]
  pressor responses to angiotensin II: slightly augmented

## N-[4-(2,3-dihydro-2-benzofuranyl)-l-(ethoxycar-α bonyl)-butyl]-(S)-alanyl-4αbenzyloxy-(S)-proline [Example 5]
  pressor responses to angiotensin II: slightly augmented
